In PMC4557309:
No constants are given. Whether binding was seen depends on the method and setting. Binding can be weak; no strength is given.

Sequences of proteins named here, by UniProt entry; tags and fusion partners are left off. A change or cut given only in a name is not applied to a line headed by its entry.
UniProt Q9XUS9: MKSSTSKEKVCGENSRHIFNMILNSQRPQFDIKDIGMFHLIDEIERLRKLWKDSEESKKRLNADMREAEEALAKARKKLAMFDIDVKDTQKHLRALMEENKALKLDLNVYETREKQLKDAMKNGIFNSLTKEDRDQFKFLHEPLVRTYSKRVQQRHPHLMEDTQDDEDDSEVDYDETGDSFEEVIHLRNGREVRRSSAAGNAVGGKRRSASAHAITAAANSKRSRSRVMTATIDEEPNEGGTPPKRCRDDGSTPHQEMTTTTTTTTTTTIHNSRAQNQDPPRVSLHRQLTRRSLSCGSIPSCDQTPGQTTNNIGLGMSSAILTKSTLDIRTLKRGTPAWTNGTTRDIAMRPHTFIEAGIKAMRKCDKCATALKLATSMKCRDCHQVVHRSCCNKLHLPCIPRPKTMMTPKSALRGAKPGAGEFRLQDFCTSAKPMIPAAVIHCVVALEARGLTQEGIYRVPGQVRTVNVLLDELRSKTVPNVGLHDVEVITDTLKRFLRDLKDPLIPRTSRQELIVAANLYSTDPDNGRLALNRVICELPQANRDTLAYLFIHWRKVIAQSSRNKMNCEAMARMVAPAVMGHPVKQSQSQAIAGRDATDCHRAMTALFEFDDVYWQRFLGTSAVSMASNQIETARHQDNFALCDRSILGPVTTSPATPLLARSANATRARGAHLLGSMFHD

Target: MBP-CYK-4 FL (C. elegans) (UniProt Q9XUS9)
Assay: pull-down; purified SPD-1 1–228 fragments incubated with amylose beads carrying MBP-CYK-4 fusion proteins; western blot with an anti-SPD-1 antibody; both purified

- binding: binds
Substance: SPD-1 1-228 fragment, wild type (from UniProt G5ED58) (domain or fragment)
